For two substances, binding results are on record in article PMC10441791.

The chains behind the UniProt entries cited, without tags or fusion partners.
UniProt P15682: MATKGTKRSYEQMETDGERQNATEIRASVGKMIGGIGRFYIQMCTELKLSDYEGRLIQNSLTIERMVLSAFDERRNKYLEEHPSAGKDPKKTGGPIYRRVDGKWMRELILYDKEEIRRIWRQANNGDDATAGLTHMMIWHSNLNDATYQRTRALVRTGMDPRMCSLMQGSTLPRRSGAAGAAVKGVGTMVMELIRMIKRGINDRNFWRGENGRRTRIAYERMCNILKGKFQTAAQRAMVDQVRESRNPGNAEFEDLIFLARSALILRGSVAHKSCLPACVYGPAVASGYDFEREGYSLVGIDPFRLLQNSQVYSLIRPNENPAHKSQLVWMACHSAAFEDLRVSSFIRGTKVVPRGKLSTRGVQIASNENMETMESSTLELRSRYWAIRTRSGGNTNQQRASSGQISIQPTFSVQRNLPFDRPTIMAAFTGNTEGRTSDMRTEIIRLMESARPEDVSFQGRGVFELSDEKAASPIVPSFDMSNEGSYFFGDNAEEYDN
UniProt P03430: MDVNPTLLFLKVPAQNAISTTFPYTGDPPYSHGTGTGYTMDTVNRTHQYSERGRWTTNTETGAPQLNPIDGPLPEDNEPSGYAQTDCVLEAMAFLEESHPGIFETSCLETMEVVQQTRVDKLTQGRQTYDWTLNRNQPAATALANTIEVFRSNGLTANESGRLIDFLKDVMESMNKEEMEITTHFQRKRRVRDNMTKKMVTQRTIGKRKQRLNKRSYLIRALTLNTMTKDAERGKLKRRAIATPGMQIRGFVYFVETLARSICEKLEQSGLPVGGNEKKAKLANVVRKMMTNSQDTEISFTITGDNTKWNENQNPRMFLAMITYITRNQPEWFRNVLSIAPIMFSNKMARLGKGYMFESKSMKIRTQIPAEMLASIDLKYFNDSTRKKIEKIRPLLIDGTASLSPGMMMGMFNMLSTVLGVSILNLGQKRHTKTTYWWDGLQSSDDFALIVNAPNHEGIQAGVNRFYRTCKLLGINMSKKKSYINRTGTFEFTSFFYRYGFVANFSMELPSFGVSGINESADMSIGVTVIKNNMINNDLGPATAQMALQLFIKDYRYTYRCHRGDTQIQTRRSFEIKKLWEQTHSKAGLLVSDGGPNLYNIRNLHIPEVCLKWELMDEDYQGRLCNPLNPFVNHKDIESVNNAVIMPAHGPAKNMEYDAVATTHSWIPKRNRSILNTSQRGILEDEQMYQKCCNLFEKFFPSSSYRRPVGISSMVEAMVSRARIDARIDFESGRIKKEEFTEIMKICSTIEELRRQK
UniProt P03427: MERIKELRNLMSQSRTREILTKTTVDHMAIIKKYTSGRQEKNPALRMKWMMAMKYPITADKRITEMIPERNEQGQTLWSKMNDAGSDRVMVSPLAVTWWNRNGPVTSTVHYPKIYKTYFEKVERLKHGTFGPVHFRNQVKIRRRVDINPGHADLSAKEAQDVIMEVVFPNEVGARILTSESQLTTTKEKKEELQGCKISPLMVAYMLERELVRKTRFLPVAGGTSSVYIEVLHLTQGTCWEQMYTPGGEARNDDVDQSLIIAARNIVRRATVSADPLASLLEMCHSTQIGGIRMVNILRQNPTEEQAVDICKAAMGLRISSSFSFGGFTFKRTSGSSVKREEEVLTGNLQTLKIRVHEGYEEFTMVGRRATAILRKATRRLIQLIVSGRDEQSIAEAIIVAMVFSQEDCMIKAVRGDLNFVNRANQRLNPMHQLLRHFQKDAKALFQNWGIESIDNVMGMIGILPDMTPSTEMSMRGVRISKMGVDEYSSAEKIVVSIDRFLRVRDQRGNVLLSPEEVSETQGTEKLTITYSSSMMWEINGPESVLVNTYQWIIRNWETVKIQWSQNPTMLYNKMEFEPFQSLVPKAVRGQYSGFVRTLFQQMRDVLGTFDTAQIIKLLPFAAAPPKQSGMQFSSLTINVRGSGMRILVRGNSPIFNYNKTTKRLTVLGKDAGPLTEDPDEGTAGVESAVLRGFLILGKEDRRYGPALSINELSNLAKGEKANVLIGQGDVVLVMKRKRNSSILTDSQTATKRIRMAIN

The target in this assay is Myc-NP (nucleoprotein of influenza A/WSN/1933) (influenza A virus A/WSN/1933 (H1N1)) (UniProt P15682). The experiment in a line: co-IP.

Results are given in words; binding and its absence hold for the method and conditions named. In cells and extracts the contact can be indirect. Some entries that bind do so weakly or less than the wild type.

With “FLAG-PB1 (polymerase basic 1 of influenza A/WSN/1933) (from UniProt P03430 1-757)”, the binding entry was “binds”. The same measure for “FLAG-PB2 (polymerase basic 2 of influenza A/WSN/1933) (from UniProt P03427 1-759)”: “binds”.
